# Measured values from PubChem BioAssay AID493014 (National Center for Advancing Translational Sciences (NCATS), 2011).
# The list shows a part of the results. Further columns of the screen follow, without active or inactive calls. The list favours compounds with an active or inconclusive main result. Potencies come from curve fits of mixed quality, noted in brackets.
# Assay: qHTS Assay to Find Inhibitors of Chronic Active B-Cell Receptor Signaling
# Details: ABC-DLBCL IkBa-CBG/CBR reporter, luminescence ratio (green luciferase fused to IkBa over red control in TMD8 lymphoma cells), 4 h
# In short: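 TMD8 human ABC-DLBCL cells with doxycycline-inducible IκBα–green luciferase fusion and unfused red luciferase, in 0.5% FBS medium; compounds up to 46 uM, 4 h at 37C. Green/red luminescence ratio, filter-overlap corrected, fitted to concentration-response curves.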
# [1] = measured here: CBR red luminescence, cell number
# [2] = measured here: IkBa-CBG green luminescence
SMILES,AC50 [1],AC50 [2]
Cc1cc(C)n(-c2nc(NCCO)c3c4c(sc3n2)CCCC4)n1,"0.0517 µM [rising, full curve, poor fit]",–
Cc1cc(NC(=S)N(Cc2ccc(Br)cc2)Cc2ccc(C(=O)O)cc2)ccc1Cl,"35.5 µM [falling, single point]","17.8 µM [rising, partial curve, poor fit]"
Cc1nc2cc(NC(=O)N3CCC(c4ccccc4)C3)ccc2n1C (stereo not given),"0.0164 µM [rising, full curve, poor fit]",–
COC(=O)c1ccc(Cn2nc(-c3ccc(C)c(C)c3)ccc2=O)cc1,"17.8 µM [rising, single point]",–
CCOC(=O)C(C)(C)N(Cc1cccc(C)c1)S(=O)(=O)c1ccc(Cl)c([N+](=O)[O-])c1,"29.1 µM [falling, single point]",–
COc1cc(/C=C/C(=O)N2CCN(Cc3ccccc3)CC2)cc(OC)c1OC,"0.708 µM [rising, full curve, poor fit]",–
C#CCn1cc(/C=N/NC(=O)COc2cccc3cccnc23)c2ccccc21,"29.1 µM [rising, single point]",–
O=c1[nH]c(-c2ccccc2)nnc1-c1ccccc1,"0.355 µM [falling, full curve]",–
CCCOC(=O)c1ccc(-n2nnnc2SCC(=O)N2CCCCC2)cc1,"10 µM [falling, partial curve]",–
O=C(N/N=C/c1ccccc1O)c1cccc(C(F)(F)F)c1,"1.84 µM [falling, partial curve, poor fit]",–
O=C(NCC1CCCN1S(=O)(=O)c1cccs1)C(=O)Nc1ccc(F)cc1 (stereo not given),"8.2 µM [falling, partial curve]",–
C=C1C(=O)O[C@H]2C[C@]3(C)C([C@@H](OC(=O)/C(C)=C/C)[C@H]12)[C@](C)(O)CC[C@H]3O (stereo not given in full),"8.91 µM [falling, partial curve, poor fit]",–
CCN(C[C@H]1N[C@@](Cc2ccccc2)(C(=O)OC)[C@H]2C(=O)N(C)C(=O)[C@@H]12)S(=O)(=O)c1ccc(OC(F)(F)F)cc1,"29.1 µM [falling, single point]",–
Nc1ccc(-c2nc3cc(N)ccc3s2)cc1,"0.794 µM [rising, full curve, poor fit]",–
C/C(=N\NC(=O)c1c[nH]c2ccccc12)c1ccccn1,"12.6 µM [falling, partial curve, poor fit]",–
CCCCn1c(CCC)nc([N+](=O)[O-])c1Sc1ccc(Cl)cn1,"13 µM [falling, partial curve]",–
COCCNC(=O)/C(C#N)=C/c1cccc(/C=C(\C#N)C(=O)NCCOC)c1,–,"18.4 µM [falling, single point]"
C[C@H](CO)N1C[C@H](C)[C@@H](CN(C)S(=O)(=O)c2ccccc2)Oc2ccc(NC(=O)C3CC3)cc2C1=O,"0.0184 µM [rising, full curve]",–
Cc1nc(-c2nnc(-c3ccccc3)o2)c(C(F)(F)F)o1,"35.5 µM [falling, single point]",–
C=CCOc1ccc(CN(C)C(=O)CNC(=O)c2ccc(-c3ccccc3)cc2)cc1,"11.2 µM [falling, partial curve]",–

SMILES,AC50 [1],AC50 [2]
O=C(Nc1cccc(NC(=O)c2ccc(-c3ccc(Br)cc3)o2)c1)c1ccco1,"8.2 µM [falling, partial curve]",–
O=C(Nc1cccc(S(=O)(=O)N2CCOCC2)c1)c1ccc(N2CCCC2=O)cc1,"6.51 µM [rising, single point]",–
O=C(CSc1nnc(Cc2cccs2)n1C1CCCCC1)N1CCCc2ccccc21,"16.4 µM [falling, single point]",–
CC(=O)CCc1c(C)c2cc(C)ccc2[nH]c1=O,"18.4 µM [rising, partial curve, poor fit]",–
CCCOc1ccc(-c2nn(-c3ccccc3)cc2/C=C2\SC(=S)N(C3CCS(=O)(=O)C3)C2=O)cc1 (stereo not given),"35.5 µM [rising, single point]",–
COc1cc(Br)ccc1C1CC(=O)C(C)C(c2ccc(Br)cc2OC)N1 (stereo not given),–,"20 µM [rising, partial curve, poor fit]"
CCn1c(CC(=O)Nc2ccccc2)nnc1SCC(=O)Nc1ccccc1C(=O)OC,"6.51 µM [rising, single point]",–
COc1cc(C(=O)NC(=S)NCc2ccco2)cc(OC)c1OC,"3.16 µM [falling, full curve, poor fit]",–
Cc1ccc2c(c1)c(N=Nc1cccc(C(=O)O)c1)c(O)n2C,"2.24 µM [falling, full curve]",–
c1ccc(-c2cc(-c3nc4ccccc4[nH]3)c3ccccc3n2)cc1,"10.3 µM [falling, single point]",–
CSc1nc(Oc2ccccc2)c2sccc2n1,"29.1 µM [rising, single point]",–
COc1cc(C(=O)OCC(=O)N(C)C)cc(NC(=O)c2ccco2)c1OC,"35.5 µM [falling, partial curve, poor fit]",–
CC(=O)Oc1ccc2nc(/C=C/c3ccccc3)oc(=O)c2c1,"0.282 µM [falling, full curve, poor fit]",–
Cc1ccc(-c2nn(-c3ccccc3)cc2/C=N/NC(=O)c2ccncc2)o1,"10 µM [rising, partial curve, poor fit]",–
Cn1c(C(=O)NCc2ccc3c(c2)OCO3)cc2sccc21,"3.55 µM [rising, single point]",–
Cc1ccc2cc(NC(=O)c3cccc(F)c3)ccc2n1,"10 µM [falling, partial curve, poor fit]",–
C=C(C)C1CC=C(C)/C(=N\NC(=O)CNc2cccc3ccccc23)C1 (stereo not given),"6.51 µM [rising, single point]",–
CCOC(=O)c1c(C)[nH]c(C)c1C(=O)COc1ccc(NC(=O)c2ccco2)cc1,"23.1 µM [rising, partial curve]",–
CCOc1ccc(C(=O)OCC(=O)Nc2cccnc2Cl)cc1OCC,"6.51 µM [rising, partial curve, poor fit]",–

# Shown tab-delimited: part of the list above.
SMILES	AC50 [1]	AC50 [2]
CCCOc1ccc(-c2nn(-c3ccccc3)cc2/C=C2\SC(=S)N(C3CCS(=O)(=O)C3)C2=O)cc1 (stereo not given)	35.5 µM [rising, single point]	–
CCn1c(CC(=O)Nc2ccccc2)nnc1SCC(=O)Nc1ccccc1C(=O)OC	6.51 µM [rising, single point]	–
Cc1ccc2c(c1)c(N=Nc1cccc(C(=O)O)c1)c(O)n2C	2.24 µM [falling, full curve]	–
